Test results from PMC10850974.
These are yes or no findings as the source states them, for the method shown. Binding seen in cells or lysates may run through a third protein. Some binding calls cover weakened binding; strength is not graded here.

By UniProt entry, the sequences of proteins in these tests, tags left out. Residues count along the entry.
UniProt P15208, residues 753-1372: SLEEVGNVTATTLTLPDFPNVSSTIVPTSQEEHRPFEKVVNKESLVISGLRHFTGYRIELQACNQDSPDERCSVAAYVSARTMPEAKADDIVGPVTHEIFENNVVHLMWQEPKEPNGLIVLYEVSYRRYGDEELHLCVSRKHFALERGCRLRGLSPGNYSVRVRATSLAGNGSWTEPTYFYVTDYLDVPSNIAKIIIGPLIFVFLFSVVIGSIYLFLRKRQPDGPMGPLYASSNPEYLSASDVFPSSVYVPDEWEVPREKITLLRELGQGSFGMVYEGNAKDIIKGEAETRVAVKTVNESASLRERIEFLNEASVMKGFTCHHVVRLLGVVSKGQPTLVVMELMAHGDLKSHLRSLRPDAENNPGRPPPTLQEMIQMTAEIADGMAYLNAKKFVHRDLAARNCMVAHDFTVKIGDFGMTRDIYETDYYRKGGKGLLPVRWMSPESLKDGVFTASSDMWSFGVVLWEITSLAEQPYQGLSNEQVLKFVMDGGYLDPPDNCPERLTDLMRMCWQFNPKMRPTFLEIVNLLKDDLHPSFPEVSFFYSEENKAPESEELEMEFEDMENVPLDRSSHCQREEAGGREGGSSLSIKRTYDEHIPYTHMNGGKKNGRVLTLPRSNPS

T1: β5 integrin (mouse (endogenous in mouse skeletal muscle and C2C12 myotubes)) (UniProt O70309)
T1 sequence: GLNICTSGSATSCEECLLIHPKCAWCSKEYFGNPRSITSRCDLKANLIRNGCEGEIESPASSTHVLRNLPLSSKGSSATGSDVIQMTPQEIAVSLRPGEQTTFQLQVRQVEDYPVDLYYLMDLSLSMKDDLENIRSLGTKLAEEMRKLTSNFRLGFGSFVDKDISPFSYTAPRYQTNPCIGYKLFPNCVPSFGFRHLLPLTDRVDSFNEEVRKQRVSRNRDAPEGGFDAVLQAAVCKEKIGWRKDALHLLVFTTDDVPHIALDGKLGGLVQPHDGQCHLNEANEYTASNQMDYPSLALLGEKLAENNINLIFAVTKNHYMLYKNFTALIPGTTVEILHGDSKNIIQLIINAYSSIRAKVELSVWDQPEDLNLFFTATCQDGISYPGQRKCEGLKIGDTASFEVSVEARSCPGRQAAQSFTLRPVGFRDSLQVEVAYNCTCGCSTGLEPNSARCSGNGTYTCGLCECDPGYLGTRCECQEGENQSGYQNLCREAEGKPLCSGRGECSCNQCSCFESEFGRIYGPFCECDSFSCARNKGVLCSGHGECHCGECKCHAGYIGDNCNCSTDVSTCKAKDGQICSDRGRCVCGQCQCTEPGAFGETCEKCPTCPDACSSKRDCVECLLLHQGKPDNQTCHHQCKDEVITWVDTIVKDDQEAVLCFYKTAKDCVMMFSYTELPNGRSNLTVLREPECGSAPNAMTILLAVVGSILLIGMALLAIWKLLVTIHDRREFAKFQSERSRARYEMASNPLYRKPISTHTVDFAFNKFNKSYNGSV

T2: protein-tyrosine phosphatase 1B (mouse (endogenous in mouse skeletal muscle and C2C12 myotubes)) (UniProt P35821)
T2 sequence: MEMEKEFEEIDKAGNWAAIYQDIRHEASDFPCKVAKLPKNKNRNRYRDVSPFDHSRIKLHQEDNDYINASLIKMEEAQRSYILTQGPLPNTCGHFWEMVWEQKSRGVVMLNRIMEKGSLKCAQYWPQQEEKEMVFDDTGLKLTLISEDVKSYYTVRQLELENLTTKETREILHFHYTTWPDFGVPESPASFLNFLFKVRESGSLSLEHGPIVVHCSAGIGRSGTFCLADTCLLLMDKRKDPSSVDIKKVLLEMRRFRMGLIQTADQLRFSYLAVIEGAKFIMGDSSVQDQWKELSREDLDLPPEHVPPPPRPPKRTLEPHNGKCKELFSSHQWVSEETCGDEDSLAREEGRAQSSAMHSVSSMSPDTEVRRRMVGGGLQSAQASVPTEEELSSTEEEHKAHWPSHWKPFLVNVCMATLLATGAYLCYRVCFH

B1: β5 integrin (receptor, UniProt O70309 24-798)
chain: T1 sequence
B2: protein-tyrosine phosphatase 1B (enzyme, UniProt P35821 1-432)
chain: T2 sequence

Assays:
[1] = molecular target: T1, β5 integrin (mouse (endogenous in mouse skeletal muscle and C2C12 myotubes)); assay: co-IP; hind leg skeletal muscle lysates of WT mice in nondenaturing lysis buffer (20 mM Tris-HCl pH8.0, 137 mM NaCl, 1% Nonidet P-40, 2 mM EDTA); IP overnight with antibody against PTP1B or β5 integrin, protein G Dyna beads, Western blot for IRβ, β5, PTP1B; mice treated with or without IP insulin (1 U/kg, 60 min) after β5 blocking or isotype control antibody; also mice fasted 16 h or refed 1 h
[2] = molecular target: T2, protein-tyrosine phosphatase 1B (mouse (endogenous in mouse skeletal muscle and C2C12 myotubes)); assay: as above
[3] = molecular target: T2, protein-tyrosine phosphatase 1B (mouse (endogenous in mouse skeletal muscle and C2C12 myotubes)); assay: co-IP; differentiated C2C12 myotube lysates in nondenaturing lysis buffer (20 mM Tris-HCl pH8.0, 137 mM NaCl, 1% Nonidet P-40, 2 mM EDTA); IP with antibody against PTP1B, Western blot for β5 and IRβ; cells treated with β5 blocking (5 μg/ml) or isotype control antibody, or rMFGE8 (10 μg/ml) or BSA, with and without insulin (5 and 30 min)

Molecule | binding [1] | binding [2] | binding [3]
insulin receptor β subunit (from UniProt P15208 753-1372) | binds | binds | binds
B1 |  | binds | binds
B2 | binds |  | 
